According to PMC12079403:
These are yes or no findings as the source states them, for the method shown. Binding seen in cells or lysates may run through a third protein. Some results given as binding are weak or reduced against the parent protein; the word gives no strength. Tags and fused reporters may be left off the sequences shown.

T1: ADAR1 (human (endogenous in the paper's human epithelial cell lines; line not named for this experiment)) (UniProt P55265)
T1 sequence: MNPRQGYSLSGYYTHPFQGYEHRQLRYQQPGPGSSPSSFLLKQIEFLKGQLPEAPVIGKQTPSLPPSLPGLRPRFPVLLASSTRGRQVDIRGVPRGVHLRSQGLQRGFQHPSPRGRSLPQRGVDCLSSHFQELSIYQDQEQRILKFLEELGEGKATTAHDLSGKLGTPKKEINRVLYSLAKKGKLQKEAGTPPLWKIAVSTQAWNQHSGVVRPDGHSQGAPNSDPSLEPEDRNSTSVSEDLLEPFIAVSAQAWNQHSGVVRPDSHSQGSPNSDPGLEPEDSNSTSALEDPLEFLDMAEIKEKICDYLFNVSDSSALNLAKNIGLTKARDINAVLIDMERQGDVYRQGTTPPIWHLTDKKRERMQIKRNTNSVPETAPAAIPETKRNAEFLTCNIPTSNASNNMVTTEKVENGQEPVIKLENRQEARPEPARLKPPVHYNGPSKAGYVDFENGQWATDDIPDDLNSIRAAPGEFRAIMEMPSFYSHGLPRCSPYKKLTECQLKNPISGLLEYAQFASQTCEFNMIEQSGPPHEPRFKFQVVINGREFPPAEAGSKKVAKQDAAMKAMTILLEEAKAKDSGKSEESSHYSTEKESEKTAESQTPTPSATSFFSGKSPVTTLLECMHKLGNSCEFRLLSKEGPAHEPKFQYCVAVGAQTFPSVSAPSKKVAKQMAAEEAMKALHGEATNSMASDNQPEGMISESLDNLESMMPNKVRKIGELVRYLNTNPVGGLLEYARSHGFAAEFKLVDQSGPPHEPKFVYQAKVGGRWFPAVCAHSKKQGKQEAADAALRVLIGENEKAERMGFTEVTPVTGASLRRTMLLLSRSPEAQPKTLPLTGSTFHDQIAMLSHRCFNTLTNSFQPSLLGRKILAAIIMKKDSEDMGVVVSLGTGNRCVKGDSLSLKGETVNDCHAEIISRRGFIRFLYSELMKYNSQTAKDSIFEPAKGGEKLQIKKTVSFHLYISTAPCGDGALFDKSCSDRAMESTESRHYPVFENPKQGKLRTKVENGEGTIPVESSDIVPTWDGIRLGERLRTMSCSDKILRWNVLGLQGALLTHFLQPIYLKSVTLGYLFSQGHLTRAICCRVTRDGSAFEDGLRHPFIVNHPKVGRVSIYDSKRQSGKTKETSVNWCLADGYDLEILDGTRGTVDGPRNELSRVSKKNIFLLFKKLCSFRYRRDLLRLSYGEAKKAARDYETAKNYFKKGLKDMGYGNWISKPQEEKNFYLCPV

T2: HNRNPL (human (endogenous in the paper's human epithelial cell lines; line not named for this experiment)) (UniProt P14866)
T2 sequence: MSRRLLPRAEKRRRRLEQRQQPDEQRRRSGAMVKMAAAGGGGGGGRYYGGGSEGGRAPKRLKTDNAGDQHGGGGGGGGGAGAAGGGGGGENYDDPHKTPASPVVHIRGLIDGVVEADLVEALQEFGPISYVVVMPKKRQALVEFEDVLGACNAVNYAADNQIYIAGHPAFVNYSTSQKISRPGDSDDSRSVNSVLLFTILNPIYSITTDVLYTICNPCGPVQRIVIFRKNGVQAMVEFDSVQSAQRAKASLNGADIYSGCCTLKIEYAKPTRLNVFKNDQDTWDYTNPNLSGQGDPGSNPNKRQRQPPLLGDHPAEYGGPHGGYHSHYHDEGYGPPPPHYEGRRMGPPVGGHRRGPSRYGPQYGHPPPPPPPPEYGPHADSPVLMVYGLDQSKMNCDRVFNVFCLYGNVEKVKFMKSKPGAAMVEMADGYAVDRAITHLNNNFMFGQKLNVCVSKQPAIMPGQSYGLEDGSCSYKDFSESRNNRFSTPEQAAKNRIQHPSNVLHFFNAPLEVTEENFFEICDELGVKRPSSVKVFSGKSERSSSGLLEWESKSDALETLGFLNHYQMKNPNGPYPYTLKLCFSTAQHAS

B1: HNRNPL (protein, UniProt P14866 1-589)
chain: T2 sequence
B2: ADAR1 (protein, UniProt P55265 1-1226)
chain: T1 sequence

Legend:
[1] = target: T1, ADAR1 (human (endogenous in the paper's human epithelial cell lines; line not named for this experiment)); experiment: co-IP; cells with or without 2% CSE lysed in RIPA buffer; lysates incubated with anti-ADAR1 or anti-HNRNPL or normal IgG at 4 °C overnight, protein A + G beads 2 h, western blotting
[2] = target: T2, HNRNPL (human (endogenous in the paper's human epithelial cell lines; line not named for this experiment)); experiment: as above

Row | Binder | binding [1] | binding [2]
1 | B1 | binds | –
2 | B2 | – | binds
